The nature of this assay: qHTS Assay for Modulators of Lamin A Splicing. The note with it: HeLa LMNA splicing GFP/RFP minigene ratio, 48 h. Put shortly: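 Read-out is the ratio of GFP to DsRed2 object intensity, acquired by 488 nm laser-scanning cytometry on HeLa lamin A-EGFP minigene reporter cells. Compound incubation 48 hrs at 37 °C in Opti-MEM with 2% FBS; DMSO 0.5% final.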
Background: Quantitative high-throughput screening tests each substance at several concentrations.

Setting [1] is: measured here: RFP viability control channel.
Setting [2] is: measured here: GFP splicing reporter channel.

This note sets out measurements from PubChem BioAssay AID1487 (National Center for Advancing Translational Sciences (NCATS), 2009).

The term AC50 denotes the midpoint of the concentration-response curve, whichever way the signal moves.

The structures appear in SMILES notation. This is one part of the list. Shown are side measurements of this screen, not its main read-out; they come without a call. Compounds called inactive in the main read-out are mostly missing here. The note in brackets gives the kind of curve behind each potency; many fits are weak.

Turning to `CCOC(=O)c1sc(NC(=O)Nc2ccc(Cl)cc2)cc1C`, the AC50 under setting [1] is 11.2 µM [rising, partial curve]. The same measure, in the same setting: to `N#CC1=C(SCC(=O)Nc2nccs2)NC(=O)CC1c1ccccc1` (stereo not drawn) belongs 35.5 µM [rising, single point]. Take `CCOc1ccccc1OCCCCCc1c(C)n[nH]c1C`: the AC50 was 2 µM [rising, partial curve] under setting [2] and 11.2 µM [rising, partial curve] under setting [1]. Consider `COCCn1nnnc1CN(CCCN1CCOCC1)Cc1cc2c(C)ccc(C)c2[nH]c1=O`, for which, under setting [1], the AC50 is 35.5 µM [rising, single point].

With `Cc1nc2c(cc(Oc3ccc(S(=O)(=O)N4CCOCC4)cn3)c3ccsc32)s1`, the AC50 under setting [2] is 11.2 µM [rising, single point] and the AC50 under setting [1] was 15.8 µM [rising, single point]. Turning to `CCOC(=O)c1cc(-c2ccc(OC)cc2)n(CCC(=O)NCCc2ccc(OCC)c(OCC)c2)c1C`, the AC50 under setting [2] was 5.62 µM [rising, single point].

Consider `COC(=O)c1ccc(/C=C/C(=O)c2ccc(OC)cc2)cc1`, for which the AC50 reads like this: under setting [2], 28.2 µM [falling, single point]; under setting [1], 25.1 µM [falling, partial curve]. `Cc1ccc(C)n1-c1ccc(-n2cnnn2)cc1`: the AC50 under setting [1] was 7.08 µM [falling, partial curve]. For the compound `O=c1[nH]c(=O)c2nc3ccccc3nc2[nH]1`, the AC50 runs as follows: under setting [2], 0.000794 µM [falling, full curve, poor fit]; under setting [1], 0.000891 µM [falling, full curve, poor fit]. In the case of `CCCc1[nH]n(-c2nc3ccccc3s2)c(=O)c1C=NCC(C)C`, the AC50 under setting [1] was 35.5 µM [rising, single point]. As to `Cc1ccc(C2C(=O)N(C3CCCCCC3)CC(=O)N2CCC2=CCCCC2)cc1` (stereo not drawn), under setting [2], the AC50 is 0.00355 µM [falling, full curve, poor fit]. `O=c1cc(-c2ccccc2)[nH]c2nc(Cl)ccc12`: the AC50 under setting [2] was 2.51 µM [falling, full curve] and the AC50 under setting [1] is 2.82 µM [falling, full curve].

With `COc1cc([N+](=O)[O-])ccc1NC(=O)N1CCC2(CC1)Nc1cc(F)ccc1-n1cccc12`, the AC50 was 1.58 µM [rising, full curve] under setting [2] and 3.16 µM [rising, full curve] under setting [1]. With `N#CC1(C#N)CC(C=O)=C(N)C1(C#N)CC(=O)C12CC3CC(CC(C3)C1)C2` (stereo not drawn), the AC50 under setting [1] was 22.4 µM [rising, single point].

For the compound `Fc1cccc2sc(Nc3nnc(-c4ccccc4)o3)nc12`, the AC50 under setting [1] is 7.08 µM [rising, full curve]. For the compound `Cc1ccc(OC(F)F)c(NC(=O)Nc2cccc(C(F)(F)F)c2)c1`, the AC50 was 15.8 µM [rising, single point] under setting [2] and 12.6 µM [rising, partial curve] under setting [1].
